# Results published in US20060099676A1, “Mammalian genes involved in rapamycin resistance and tumorgenesis: rapr6 genes” (priority 2002, published 2006).
# At least one structure is not confirmed: it was looked up by name or label, or the drawing left a doubt.
# Tested on: N2a cells
# Assay: MTT proliferation assay: rapamycin mediated cell growth inhibition of N2a cells
# Format: cell-based, mouse
# Details: 1 μM rapamycin
# Text: In a preferred embodiment, an MTT proliferation assay (see, e.g., van de Loosdrechet, et al., 1994, J. Immunol. Methods 174: 311-320; Ohno et al., 1991, J. Immunol. Methods 145:199-203; Ferrari et al., 1990, J. Immunol. Methods 131: 165-172; Alley et al., 1988, Cancer Res. 48: 589-601; Carmichael et al., 1987, Cancer Res. 47:936-942; Gerlier et al., 1986, J. Immunol. Methods 65:55-63; Mosmann, 1983, J. Immunological Methods 65:55-63) is used to screen for a candidate agent in conjunction with rapamycin to inhibit the growth of rapamycin resistant cells. The cells are treated with chosen concentrations of the candidate agent and rapamycin for 4 to 72 hours. The cells are then incubated with a suitable amount of 3-(4,5-dimethylthiazol-2-yl)-2,5-diphenyitetrazoiium bromide (MTT) for 1-8 hours such that viable cells convert MTT into an intracellular deposit of insoluble formazan. After removing the excess MTT contained in the supernatant, a suitable MTT solvent, e.g., a DMSO solution, is added to dissolved the formazan. The concentration of […], which is proportional to the number of viable cells, is then measured by determining the optical density at 570 nm. A plurality of different concentrations of the candidate agent can be assayed to allow the determination of the concentrations of the candidate agent and rapamycin which causes 50% inhibition. […]
smiles,measurement,value
"CO[C@H]1C[C@@H]2CC[C@@H](C)[C@@](O)(O2)C(=O)C(=O)N2CCCC[C@H]2C(=O)O[C@H]([C@H](C)C[C@@H]2CC[C@@H](O)[C@H](OC)C2)CC(=O)[C@H](C)/C=C(\C)[C@@H](O)[C@@H](OC)C(=O)[C@H](C)C[C@H](C)/C=C/C=C/C=C/1C [rapamycin, 9,10,12,13,14,21,22,23,24,25,26,27, 32,33,34,34a-hexadecahydro-9,27-dihydroxy-3-[2-(4-hydroxy-3-methoxycyclohexyl)-1-methylethyl]-10,21-dimethoxy-6,8,12,14,20,26-hexamethyl-23,27-epoxy-3H-pyrido[2,1-c][1,4]oxaazacyclohentricontine-1,5,11,28,29(4H,6H,31H)-pentone]",effect on N2a cells (killing or growth inhibition),all N2a cells were either killed or growth inhibited
